According to article PMC7032732:
No constants are given. Whether binding was seen depends on the method and setting. Binding seen in cells or lysates may run through a third protein. Some results given as binding are weak or reduced against the parent protein; the word gives no strength. Sequences can lack the tags named with a protein.

T1: HA-Cdc4 (cdc4Δ::HA-CDC4 strain YMB10217) (S. cerevisiae) (UniProt P07834)
T1 sequence: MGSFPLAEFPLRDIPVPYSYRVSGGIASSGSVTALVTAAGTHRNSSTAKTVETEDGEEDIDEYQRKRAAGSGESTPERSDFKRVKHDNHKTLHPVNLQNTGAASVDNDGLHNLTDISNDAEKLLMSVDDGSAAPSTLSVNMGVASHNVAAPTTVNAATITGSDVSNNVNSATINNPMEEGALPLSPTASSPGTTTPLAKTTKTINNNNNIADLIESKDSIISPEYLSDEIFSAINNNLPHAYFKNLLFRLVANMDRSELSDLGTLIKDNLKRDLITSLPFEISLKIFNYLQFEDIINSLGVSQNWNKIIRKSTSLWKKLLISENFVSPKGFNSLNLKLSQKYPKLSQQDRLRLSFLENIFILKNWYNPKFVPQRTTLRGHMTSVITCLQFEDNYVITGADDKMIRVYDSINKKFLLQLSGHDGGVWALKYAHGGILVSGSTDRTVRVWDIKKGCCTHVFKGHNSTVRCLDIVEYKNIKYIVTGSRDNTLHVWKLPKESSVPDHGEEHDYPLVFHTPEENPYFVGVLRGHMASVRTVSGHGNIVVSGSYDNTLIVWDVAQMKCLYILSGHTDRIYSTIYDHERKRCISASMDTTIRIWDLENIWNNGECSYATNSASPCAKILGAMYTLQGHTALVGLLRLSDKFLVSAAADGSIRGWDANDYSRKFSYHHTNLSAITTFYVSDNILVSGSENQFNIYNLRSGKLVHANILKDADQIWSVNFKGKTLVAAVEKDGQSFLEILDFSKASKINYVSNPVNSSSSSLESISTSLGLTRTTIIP

T2: Myc-Met30 (Myc-MET30, pK699) (S. cerevisiae) (UniProt P39014)
T2 sequence: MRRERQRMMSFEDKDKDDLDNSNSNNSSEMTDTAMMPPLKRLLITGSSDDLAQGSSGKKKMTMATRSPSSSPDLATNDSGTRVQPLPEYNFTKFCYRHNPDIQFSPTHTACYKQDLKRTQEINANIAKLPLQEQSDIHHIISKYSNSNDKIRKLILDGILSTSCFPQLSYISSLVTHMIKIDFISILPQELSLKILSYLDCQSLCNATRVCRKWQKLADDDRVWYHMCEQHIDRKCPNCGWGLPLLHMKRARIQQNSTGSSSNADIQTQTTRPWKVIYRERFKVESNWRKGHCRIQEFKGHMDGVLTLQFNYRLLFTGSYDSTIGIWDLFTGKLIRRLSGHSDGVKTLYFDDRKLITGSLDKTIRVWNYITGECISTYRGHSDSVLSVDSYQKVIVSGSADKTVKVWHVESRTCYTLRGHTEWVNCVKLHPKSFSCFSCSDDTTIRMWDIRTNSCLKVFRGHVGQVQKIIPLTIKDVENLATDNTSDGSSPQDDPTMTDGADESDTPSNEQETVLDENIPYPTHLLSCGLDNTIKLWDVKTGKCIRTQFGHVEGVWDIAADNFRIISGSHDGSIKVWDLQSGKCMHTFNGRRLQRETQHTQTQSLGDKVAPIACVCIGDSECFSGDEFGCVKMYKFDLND


Legend:
[1] = target: HA-Cse4 overexpressed from the GAL promoter (GAL-HA-CSE4, pMB1597) (S. cerevisiae) (UniProt P36012); assay: co-IP; IP with anti-HA agarose from whole cell extracts of yeast; HA-Cse4 transiently induced from the GAL promoter in galactose medium for 3 hours at 25°C; extraction buffer 40mM Hepes pH7.5, 350mM NaCl, 0.1% Tween, 10% glycerol; 4°C overnight; Western blot with anti-Myc and anti-HA
[2] = target: T1, HA-Cdc4 (cdc4Δ::HA-CDC4 strain YMB10217) (S. cerevisiae); assay: co-IP; IP with anti-HA agarose from whole cell extracts of yeast grown in selective glucose medium at 25°C; all tagged proteins from their native promoters; extraction buffer 40mM Hepes pH7.5, 350mM NaCl, 0.1% Tween, 10% glycerol; 4°C overnight; WT strains, also cdc4-1 (Met30 with Cse4 not affected) and met30-6 (Cdc4 with Cse4 greatly reduced, restored by plasmid-borne MET30 or met30ΔD)
[3] = target: HA-Cse4 expressed from the CSE4 promoter (HA-CSE4, pMB1831) (S. cerevisiae) (UniProt P36012); assay: as above
[4] = target: T2, Myc-Met30 (Myc-MET30, pK699) (S. cerevisiae); assay: co-IP; IP with anti-Myc from whole cell extracts of the cdc4Δ::HA-CDC4 strain with Myc-MET30, grown at 25°C; tagged proteins from their native promoters; Western blot with anti-HA and anti-Myc

Row | binding [1] | binding [2] | binding [3] | binding [4] | Binder
1 | binds | binds | binds |  | Myc-Met30 (Myc-MET30, pK699) (protein, UniProt P39014 1-640) MRRERQRMMSFEDKDKDDLDNSNSNNSSEMTDTAMMPPLKRLLITGSSDDLAQGSSGKKKMTMATRSPSSSPDLATNDSGTRVQPLPEYNFTKFCYRHNPDIQFSPTHTACYKQDLKRTQEINANIAKLPLQEQSDIHHIISKYSNSNDKIRKLILDGILSTSCFPQLSYISSLVTHMIKIDFISILPQELSLKILSYLDCQSLCNATRVCRKWQKLADDDRVWYHMCEQHIDRKCPNCGWGLPLLHMKRARIQQNSTGSSSNADIQTQTTRPWKVIYRERFKVESNWRKGHCRIQEFKGHMDGVLTLQFNYRLLFTGSYDSTIGIWDLFTGKLIRRLSGHSDGVKTLYFDDRKLITGSLDKTIRVWNYITGECISTYRGHSDSVLSVDSYQKVIVSGSADKTVKVWHVESRTCYTLRGHTEWVNCVKLHPKSFSCFSCSDDTTIRMWDIRTNSCLKVFRGHVGQVQKIIPLTIKDVENLATDNTSDGSSPQDDPTMTDGADESDTPSNEQETVLDENIPYPTHLLSCGLDNTIKLWDVKTGKCIRTQFGHVEGVWDIAADNFRIISGSHDGSIKVWDLQSGKCMHTFNGRRLQRETQHTQTQSLGDKVAPIACVCIGDSECFSGDEFGCVKMYKFDLND
2 |  |  |  | binds | HA-Cdc4 (cdc4Δ::HA-CDC4 strain YMB10217) (protein, UniProt P07834 1-779) MGSFPLAEFPLRDIPVPYSYRVSGGIASSGSVTALVTAAGTHRNSSTAKTVETEDGEEDIDEYQRKRAAGSGESTPERSDFKRVKHDNHKTLHPVNLQNTGAASVDNDGLHNLTDISNDAEKLLMSVDDGSAAPSTLSVNMGVASHNVAAPTTVNAATITGSDVSNNVNSATINNPMEEGALPLSPTASSPGTTTPLAKTTKTINNNNNIADLIESKDSIISPEYLSDEIFSAINNNLPHAYFKNLLFRLVANMDRSELSDLGTLIKDNLKRDLITSLPFEISLKIFNYLQFEDIINSLGVSQNWNKIIRKSTSLWKKLLISENFVSPKGFNSLNLKLSQKYPKLSQQDRLRLSFLENIFILKNWYNPKFVPQRTTLRGHMTSVITCLQFEDNYVITGADDKMIRVYDSINKKFLLQLSGHDGGVWALKYAHGGILVSGSTDRTVRVWDIKKGCCTHVFKGHNSTVRCLDIVEYKNIKYIVTGSRDNTLHVWKLPKESSVPDHGEEHDYPLVFHTPEENPYFVGVLRGHMASVRTVSGHGNIVVSGSYDNTLIVWDVAQMKCLYILSGHTDRIYSTIYDHERKRCISASMDTTIRIWDLENIWNNGECSYATNSASPCAKILGAMYTLQGHTALVGLLRLSDKFLVSAAADGSIRGWDANDYSRKFSYHHTNLSAITTFYVSDNILVSGSENQFNIYNLRSGKLVHANILKDADQIWSVNFKGKTLVAAVEKDGQSFLEILDFSKASKINYVSNPVNSSSSSLESISTSLGLTRTTIIP
3 |  | binds |  |  | Myc-met30Δ113 (Δ1–113 aa, pMB1837) (domain or fragment, UniProt P39014 114-640) QDLKRTQEINANIAKLPLQEQSDIHHIISKYSNSNDKIRKLILDGILSTSCFPQLSYISSLVTHMIKIDFISILPQELSLKILSYLDCQSLCNATRVCRKWQKLADDDRVWYHMCEQHIDRKCPNCGWGLPLLHMKRARIQQNSTGSSSNADIQTQTTRPWKVIYRERFKVESNWRKGHCRIQEFKGHMDGVLTLQFNYRLLFTGSYDSTIGIWDLFTGKLIRRLSGHSDGVKTLYFDDRKLITGSLDKTIRVWNYITGECISTYRGHSDSVLSVDSYQKVIVSGSADKTVKVWHVESRTCYTLRGHTEWVNCVKLHPKSFSCFSCSDDTTIRMWDIRTNSCLKVFRGHVGQVQKIIPLTIKDVENLATDNTSDGSSPQDDPTMTDGADESDTPSNEQETVLDENIPYPTHLLSCGLDNTIKLWDVKTGKCIRTQFGHVEGVWDIAADNFRIISGSHDGSIKVWDLQSGKCMHTFNGRRLQRETQHTQTQSLGDKVAPIACVCIGDSECFSGDEFGCVKMYKFDLND
4 |  | binds |  |  | Myc-met30Δ77 (Δ1–77 aa, pMB1835) (domain or fragment, UniProt P39014 78-640) DSGTRVQPLPEYNFTKFCYRHNPDIQFSPTHTACYKQDLKRTQEINANIAKLPLQEQSDIHHIISKYSNSNDKIRKLILDGILSTSCFPQLSYISSLVTHMIKIDFISILPQELSLKILSYLDCQSLCNATRVCRKWQKLADDDRVWYHMCEQHIDRKCPNCGWGLPLLHMKRARIQQNSTGSSSNADIQTQTTRPWKVIYRERFKVESNWRKGHCRIQEFKGHMDGVLTLQFNYRLLFTGSYDSTIGIWDLFTGKLIRRLSGHSDGVKTLYFDDRKLITGSLDKTIRVWNYITGECISTYRGHSDSVLSVDSYQKVIVSGSADKTVKVWHVESRTCYTLRGHTEWVNCVKLHPKSFSCFSCSDDTTIRMWDIRTNSCLKVFRGHVGQVQKIIPLTIKDVENLATDNTSDGSSPQDDPTMTDGADESDTPSNEQETVLDENIPYPTHLLSCGLDNTIKLWDVKTGKCIRTQFGHVEGVWDIAADNFRIISGSHDGSIKVWDLQSGKCMHTFNGRRLQRETQHTQTQSLGDKVAPIACVCIGDSECFSGDEFGCVKMYKFDLND
